These are yes or no findings as the source states them, for the method shown. Binding seen in cells or lysates may run through a third protein. Sequences can lack the tags named with a protein.
Target: GST-NR2E1 (human) (UniProt Q9Y466)
Experiment: pull-down; GST or GST fusion from E. coli lysate held on glutathione MagBeads, washed, blocked with 1 % BSA/PBS; HEK293 lysate (0.1 % BSA) with the overexpressed protein for two hours at 4 °C; western blot (anti-FLAG, anti-EGFP, anti-myc); only the target purified

Sequences of proteins named here, by UniProt entry; tags and fusion partners are left off. A change or cut given only in a name is not applied to a line headed by its entry.
UniProt Q9Y466: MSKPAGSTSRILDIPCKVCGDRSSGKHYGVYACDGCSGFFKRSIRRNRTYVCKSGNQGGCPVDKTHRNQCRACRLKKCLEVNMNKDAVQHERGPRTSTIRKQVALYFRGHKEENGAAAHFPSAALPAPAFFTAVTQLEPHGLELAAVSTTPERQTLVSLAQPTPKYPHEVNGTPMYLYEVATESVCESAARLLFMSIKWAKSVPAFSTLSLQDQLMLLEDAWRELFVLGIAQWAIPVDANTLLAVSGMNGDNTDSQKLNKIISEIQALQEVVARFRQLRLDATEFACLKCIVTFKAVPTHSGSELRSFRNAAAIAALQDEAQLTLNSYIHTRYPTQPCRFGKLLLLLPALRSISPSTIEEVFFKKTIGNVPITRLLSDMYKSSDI

B1: myc-tagged PRGC1 (Myc-PRGC1) (protein, UniProt O70343 1-797)
chain: MAWDMCSQDSVWSDIECAALVGEDQPLCPDLPELDLSELDVNDLDTDSFLGGLKWCSDQSEIISNQYNNEPANIFEKIDEENEANLLAVLTETLDSLPVDEDGLPSFDALTDGAVTTDNEASPSSMPDGTPPPQEAEEPSLLKKLLLAPANTQLSYNECSGLSTQNHAANHTHRIRTNPAIVKTENSWSNKAKSICQQQKPQRRPCSELLKYLTTNDDPPHTKPTENRNSSRDKCASKKKSHTQPQSQHAQAKPTTLSLPLTPESPNDPKGSPFENKTIERTLSVELSGTAGLTPPTTPPHKANQDNPFKASPKLKPSCKTVVPPPTKRARYSECSGTQGSHSTKKGPEQSELYAQLSKSSGLSRGHEERKTKRPSLRLFGDHDYCQSLNSKTDILINISQELQDSRQLDFKDASCDWQGHICSSTDSGQCYLRETLEASKQVSPCSTRKQLQDQEIRAELNKHFGHPCQAVFDDKSDKTSELRDGDFSNEQFSKLPVFINSGLAMDGLFDDSEDESDKLSYPWDGTQPYSLFDVSPSCSSFNSPCRDSVSPPKSLFSQRPQRMRSRSRSFSRHRSCSRSPYSRSRSRSPGSRSSSRSCYYYESSHYRHRTHRNSPLYVRSRSRSPYSRRPRYDSYEAYEHERLKRDEYRKEHEKRESERAKQRERQKQKAIEERRVIYVGKIRPDTTRTELRDRFEVFGEIEECTVNLRDDGDSYGFITYRYTCDAFAALENGYTLRRSNETDFELYFCGRKQFFKSNYADLDTNSDDFDPASTKSKYDSLDFDSLLKEAQRSLRR
Question: B1 was tested. Which binding did it give?
Answer: no binding
